Chains of the proteins cited; added tags and fusions are not shown. Lines headed by an entry give the natural chain unless they say otherwise; changes in a name come on top.
UniProt Q384V7: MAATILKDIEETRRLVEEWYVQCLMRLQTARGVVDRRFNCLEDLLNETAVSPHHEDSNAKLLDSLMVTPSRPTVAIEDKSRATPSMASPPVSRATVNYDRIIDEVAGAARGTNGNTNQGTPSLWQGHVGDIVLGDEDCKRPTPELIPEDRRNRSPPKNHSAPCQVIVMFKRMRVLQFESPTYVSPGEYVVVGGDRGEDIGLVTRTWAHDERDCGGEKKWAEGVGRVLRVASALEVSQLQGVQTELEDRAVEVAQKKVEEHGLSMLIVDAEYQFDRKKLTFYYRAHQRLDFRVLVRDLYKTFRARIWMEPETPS
UniProt Q389Y5: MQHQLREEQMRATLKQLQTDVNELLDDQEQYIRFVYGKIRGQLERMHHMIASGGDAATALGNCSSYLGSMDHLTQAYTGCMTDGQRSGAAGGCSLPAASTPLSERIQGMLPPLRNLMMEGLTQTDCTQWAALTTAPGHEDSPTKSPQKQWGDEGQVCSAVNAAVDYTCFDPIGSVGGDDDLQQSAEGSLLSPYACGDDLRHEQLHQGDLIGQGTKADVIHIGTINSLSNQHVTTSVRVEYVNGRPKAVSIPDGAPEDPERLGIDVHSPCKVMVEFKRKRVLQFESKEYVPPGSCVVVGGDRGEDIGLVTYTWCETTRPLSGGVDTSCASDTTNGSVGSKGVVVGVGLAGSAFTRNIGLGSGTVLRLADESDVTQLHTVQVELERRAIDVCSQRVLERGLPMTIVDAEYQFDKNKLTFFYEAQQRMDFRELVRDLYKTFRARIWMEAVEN

According to article PMC6907760:

Target: HA-TbCSBPII-33 (Trypanosoma brucei) (UniProt Q384V7)
Test: affinity purification with mass spectrometry; anti-HA magnetic beads, cleared lysate of SILAC labelled procyclic T. brucei with the HA-tagged bait against the parental untagged line; 50 mM Tris pH 7.6, 150 mM NaCl, 10% glycerol, 0.1% NP-40, 3 h at 4 °C; eluted with HA peptide; biological replicates with label swap

binding: binds
Substance: PCD4 (from UniProt Q389Y5)

No constants are given. Whether binding was seen depends on the method and setting. Binding seen in cells or lysates may run through a third protein. Here binding means that the protein was enriched with, or labelled near, the bait; the list need not be complete.
